Publication PMC11642102
These are yes or no findings as the source states them, for the method shown. Binding seen in cells or lysates may run through a third protein. These calls come from enrichment with a bait or labelling near it, and not all partners need be listed.

Chains of the proteins cited; added tags and fusions are not shown.
UniProt Q01827: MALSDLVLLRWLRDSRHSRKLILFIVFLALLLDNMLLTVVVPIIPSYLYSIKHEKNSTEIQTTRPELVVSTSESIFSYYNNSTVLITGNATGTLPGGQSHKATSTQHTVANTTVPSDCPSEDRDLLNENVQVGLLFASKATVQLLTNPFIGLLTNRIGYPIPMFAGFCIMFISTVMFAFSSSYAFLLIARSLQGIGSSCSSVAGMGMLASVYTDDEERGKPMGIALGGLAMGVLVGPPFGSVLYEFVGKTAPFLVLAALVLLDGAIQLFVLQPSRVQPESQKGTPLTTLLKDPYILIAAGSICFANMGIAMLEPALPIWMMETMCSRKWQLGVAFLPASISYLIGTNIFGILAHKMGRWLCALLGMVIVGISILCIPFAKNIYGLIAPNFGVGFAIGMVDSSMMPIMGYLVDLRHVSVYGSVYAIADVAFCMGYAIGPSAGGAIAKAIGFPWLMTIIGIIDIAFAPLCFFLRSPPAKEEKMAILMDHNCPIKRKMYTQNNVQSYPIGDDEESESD
UniProt Q9Z0W5: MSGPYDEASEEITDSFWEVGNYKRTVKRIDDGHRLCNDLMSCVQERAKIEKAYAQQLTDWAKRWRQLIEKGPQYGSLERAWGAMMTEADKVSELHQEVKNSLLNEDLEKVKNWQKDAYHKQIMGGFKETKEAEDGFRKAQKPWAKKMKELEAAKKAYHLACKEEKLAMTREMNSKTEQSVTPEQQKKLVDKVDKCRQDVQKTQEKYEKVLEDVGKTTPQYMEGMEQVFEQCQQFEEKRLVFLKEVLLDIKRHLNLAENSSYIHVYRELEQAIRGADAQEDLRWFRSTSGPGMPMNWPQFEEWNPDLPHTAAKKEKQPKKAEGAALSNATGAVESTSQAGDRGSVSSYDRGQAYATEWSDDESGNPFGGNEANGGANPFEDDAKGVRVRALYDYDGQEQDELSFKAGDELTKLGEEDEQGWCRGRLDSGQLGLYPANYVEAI
UniProt Q3B8Q0: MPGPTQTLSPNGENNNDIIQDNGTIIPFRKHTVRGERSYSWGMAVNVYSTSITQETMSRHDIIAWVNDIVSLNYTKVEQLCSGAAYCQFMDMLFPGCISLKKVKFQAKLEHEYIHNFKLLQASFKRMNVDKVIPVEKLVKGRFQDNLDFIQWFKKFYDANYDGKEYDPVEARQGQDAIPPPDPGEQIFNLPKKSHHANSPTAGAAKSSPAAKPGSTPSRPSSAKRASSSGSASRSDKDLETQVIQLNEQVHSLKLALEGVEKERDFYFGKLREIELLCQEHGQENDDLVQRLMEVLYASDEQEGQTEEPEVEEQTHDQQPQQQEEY
UniProt Q62910: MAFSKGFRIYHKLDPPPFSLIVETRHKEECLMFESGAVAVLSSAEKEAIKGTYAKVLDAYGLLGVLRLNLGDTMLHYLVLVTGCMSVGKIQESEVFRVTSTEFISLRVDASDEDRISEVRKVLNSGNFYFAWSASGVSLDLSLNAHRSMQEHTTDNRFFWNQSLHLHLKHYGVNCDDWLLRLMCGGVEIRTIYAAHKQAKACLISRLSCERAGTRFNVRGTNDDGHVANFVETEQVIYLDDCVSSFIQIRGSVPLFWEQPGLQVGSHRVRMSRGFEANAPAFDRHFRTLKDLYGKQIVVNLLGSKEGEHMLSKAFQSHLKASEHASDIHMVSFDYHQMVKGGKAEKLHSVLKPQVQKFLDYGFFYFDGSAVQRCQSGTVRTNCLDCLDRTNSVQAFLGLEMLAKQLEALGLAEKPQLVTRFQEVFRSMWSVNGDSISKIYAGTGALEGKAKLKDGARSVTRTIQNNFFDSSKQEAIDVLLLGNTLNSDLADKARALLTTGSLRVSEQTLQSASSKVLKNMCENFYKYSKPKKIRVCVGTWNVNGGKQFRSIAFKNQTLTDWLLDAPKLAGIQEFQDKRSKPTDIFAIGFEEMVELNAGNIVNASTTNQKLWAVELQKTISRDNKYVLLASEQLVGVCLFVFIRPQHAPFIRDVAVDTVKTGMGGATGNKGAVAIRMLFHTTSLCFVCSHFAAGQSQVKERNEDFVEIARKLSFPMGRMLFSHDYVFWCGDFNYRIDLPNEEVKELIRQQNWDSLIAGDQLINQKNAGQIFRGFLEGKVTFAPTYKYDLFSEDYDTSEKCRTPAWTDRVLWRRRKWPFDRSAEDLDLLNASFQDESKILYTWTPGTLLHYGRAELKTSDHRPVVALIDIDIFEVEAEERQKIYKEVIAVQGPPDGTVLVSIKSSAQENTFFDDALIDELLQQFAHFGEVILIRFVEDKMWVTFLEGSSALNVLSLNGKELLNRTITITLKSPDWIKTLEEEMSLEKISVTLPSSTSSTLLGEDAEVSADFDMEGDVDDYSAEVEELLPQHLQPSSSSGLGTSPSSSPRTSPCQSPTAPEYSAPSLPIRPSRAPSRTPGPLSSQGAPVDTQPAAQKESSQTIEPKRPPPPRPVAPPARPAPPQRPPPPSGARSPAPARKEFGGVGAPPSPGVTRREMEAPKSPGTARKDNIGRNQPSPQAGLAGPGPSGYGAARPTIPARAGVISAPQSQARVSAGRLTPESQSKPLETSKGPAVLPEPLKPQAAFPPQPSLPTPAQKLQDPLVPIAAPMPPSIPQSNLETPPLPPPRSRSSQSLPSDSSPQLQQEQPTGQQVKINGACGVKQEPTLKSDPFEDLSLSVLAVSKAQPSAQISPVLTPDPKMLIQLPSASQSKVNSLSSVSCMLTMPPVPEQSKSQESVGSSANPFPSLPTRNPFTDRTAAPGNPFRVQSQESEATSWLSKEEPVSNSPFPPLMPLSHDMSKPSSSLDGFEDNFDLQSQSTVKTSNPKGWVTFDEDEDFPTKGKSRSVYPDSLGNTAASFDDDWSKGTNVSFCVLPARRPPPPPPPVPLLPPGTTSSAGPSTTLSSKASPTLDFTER
UniProt O08835: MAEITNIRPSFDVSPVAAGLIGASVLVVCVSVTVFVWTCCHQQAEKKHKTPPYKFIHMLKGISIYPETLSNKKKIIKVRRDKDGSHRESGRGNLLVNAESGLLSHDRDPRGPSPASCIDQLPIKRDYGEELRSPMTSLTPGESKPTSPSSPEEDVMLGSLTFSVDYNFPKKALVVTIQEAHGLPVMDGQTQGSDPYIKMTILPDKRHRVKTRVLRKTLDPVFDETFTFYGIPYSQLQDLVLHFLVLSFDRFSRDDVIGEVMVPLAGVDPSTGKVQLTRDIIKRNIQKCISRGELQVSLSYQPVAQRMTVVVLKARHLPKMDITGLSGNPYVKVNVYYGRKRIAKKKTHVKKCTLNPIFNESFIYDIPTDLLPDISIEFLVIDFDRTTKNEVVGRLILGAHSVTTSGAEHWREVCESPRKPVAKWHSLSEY
UniProt Q6MG11: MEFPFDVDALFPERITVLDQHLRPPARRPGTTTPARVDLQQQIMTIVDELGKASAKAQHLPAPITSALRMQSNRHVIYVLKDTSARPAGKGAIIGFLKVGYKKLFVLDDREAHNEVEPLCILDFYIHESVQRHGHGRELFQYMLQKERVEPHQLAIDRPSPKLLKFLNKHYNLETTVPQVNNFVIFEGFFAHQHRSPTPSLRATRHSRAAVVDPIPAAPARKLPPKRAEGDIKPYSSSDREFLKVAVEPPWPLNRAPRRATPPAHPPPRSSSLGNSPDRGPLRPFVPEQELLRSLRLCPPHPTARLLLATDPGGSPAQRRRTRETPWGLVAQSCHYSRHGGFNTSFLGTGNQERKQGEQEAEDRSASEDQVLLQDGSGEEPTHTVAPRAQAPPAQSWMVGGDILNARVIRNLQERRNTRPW

Target: vesicular monoamine transporter-2 (VMAT2) (rat (endogenous in Sprague Dawley rat striatum)) (UniProt Q01827)
Assay: affinity purification with mass spectrometry; Dynabeads with anti-VMAT2 antibody, membrane/endosomal fraction of striatal synaptosomes of saline- and METH-treated rats killed 1 h after treatment (n = 4); SDS-PAGE, in-gel trypsin digest, LC-MS/MS (Q Exactive)

Substance	binding
Protein kinase C and casein kinase substrate in neurons protein 1 (from UniProt Q9Z0W5 1-441)	binds
Microtubule-associated protein RP/EB family member 2 (from UniProt Q3B8Q0 1-326)	binds
synaptojanin-1 (from UniProt Q62910 1-1574)	binds
synaptotagmin 11 (from UniProt O08835 1-430)	binds
Alpha-tubulin N-acetyltransferase 1 (from UniProt Q6MG11 1-421)	binds
